By UniProt entry, the sequences of proteins in these tests, tags left out.
UniProt P14635: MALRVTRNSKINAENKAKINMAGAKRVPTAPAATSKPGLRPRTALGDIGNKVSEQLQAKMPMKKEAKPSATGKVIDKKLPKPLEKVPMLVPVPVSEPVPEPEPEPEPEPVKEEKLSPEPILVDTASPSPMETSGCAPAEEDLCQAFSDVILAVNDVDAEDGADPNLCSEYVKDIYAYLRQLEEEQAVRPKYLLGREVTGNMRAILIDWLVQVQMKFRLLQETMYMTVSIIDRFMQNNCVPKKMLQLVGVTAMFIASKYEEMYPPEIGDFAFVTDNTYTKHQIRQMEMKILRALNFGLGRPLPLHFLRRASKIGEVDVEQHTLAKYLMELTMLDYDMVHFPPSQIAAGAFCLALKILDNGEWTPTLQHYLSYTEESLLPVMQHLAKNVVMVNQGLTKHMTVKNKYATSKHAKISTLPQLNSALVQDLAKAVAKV

According to PMC7265330:

Molecular target: cyclin B1 (RPE cyclin B1-Venus+/−:Ruby-MAD2+/− cells) (human (endogenous in RPE1)) (UniProt P14635)
Assay: affinity purification with mass spectrometry; CCNB1 immunoprecipitates from RPE cells (WT, MAD1 E53/56K clones D2 and B12) against IgG control; on-bead trypsin digest, TMT labelling, quantitative LC-MS/MS; three biologically independent experiments

binding	Binder
binds	MAD1 (parental RPE cells) (protein, UniProt Q9Y6D9 1-718) MEDLGENTMVLSTLRSLNNFISQRVEGGSGLDISTSAPGSLQMQYQQSMQLEERAEQIRSKSHLIQVEREKMQMELSHKRARVELERAASTSARNYEREVDRNQELLTRIRQLQEREAGAEEKMQEQLERNRQCQQNLDAASKRLREKEDSLAQAGETINALKGRISELQWSVMDQEMRVKRLESEKQELQEQLDLQHKKCQEANQKIQELQASQEARADHEQQIKDLEQKLSLQEQDAAIVKNMKSELVRLPRLERELKQLREESAHLREMRETNGLLQEELEGLQRKLGRQEKMQETLVGLELENERLLAKLQSWERLDQTMGLSIRTPEDLSRFVVELQQRELALKDKNSAVTSSARGLEKARQQLQEELRQVSGQLLEERKKRETHEALARRLQKRVLLLTKERDGMRAILGSYDSELTPAEYSPQLTRRMREAEDMVQKVHSHSAEMEAQLSQALEELGGQKQRADMLEMELKMLKSQSSSAEQSFLFSREEADTLRLKVEELEGERSRLEEEKRMLEAQLERRALQGDYDQSRTKVLHMSLNPTSVARQRLREDHSQLQAECERLRGLLRAMERGGTVPADLEAAAASLPSSKEVAELKKQVESAELKNQRLKEVFQTKIQEFRKACYTLTGYQIDITTENQYRLTSLYAEHPGDCLIFKATSPSGSKMQLLETEFSHTVGELIEVHLRRQDSIPAFLSSLTLELFSRQTVA
no binding	MAD1 E53K/E56K (RPE clones 7D2 and 8B12) (protein, UniProt Q9Y6D9 1-718) MEDLGENTMVLSTLRSLNNFISQRVEGGSGLDISTSAPGSLQMQYQQSMQLEKRAKQIRSKSHLIQVEREKMQMELSHKRARVELERAASTSARNYEREVDRNQELLTRIRQLQEREAGAEEKMQEQLERNRQCQQNLDAASKRLREKEDSLAQAGETINALKGRISELQWSVMDQEMRVKRLESEKQELQEQLDLQHKKCQEANQKIQELQASQEARADHEQQIKDLEQKLSLQEQDAAIVKNMKSELVRLPRLERELKQLREESAHLREMRETNGLLQEELEGLQRKLGRQEKMQETLVGLELENERLLAKLQSWERLDQTMGLSIRTPEDLSRFVVELQQRELALKDKNSAVTSSARGLEKARQQLQEELRQVSGQLLEERKKRETHEALARRLQKRVLLLTKERDGMRAILGSYDSELTPAEYSPQLTRRMREAEDMVQKVHSHSAEMEAQLSQALEELGGQKQRADMLEMELKMLKSQSSSAEQSFLFSREEADTLRLKVEELEGERSRLEEEKRMLEAQLERRALQGDYDQSRTKVLHMSLNPTSVARQRLREDHSQLQAECERLRGLLRAMERGGTVPADLEAAAASLPSSKEVAELKKQVESAELKNQRLKEVFQTKIQEFRKACYTLTGYQIDITTENQYRLTSLYAEHPGDCLIFKATSPSGSKMQLLETEFSHTVGELIEVHLRRQDSIPAFLSSLTLELFSRQTVA

These are yes or no findings as the source states them, for the method shown. In cells and extracts the contact can be indirect. A yes stands for co-enrichment or nearness to the bait. Other partners may have been found. A no says only that the protein was not detected with the bait.
